According to patent publication US10894770B2, “Fullerene derivative and n-type semiconductor material” (DAIKIN INDUSTRIES, LTD., priority 2015, dated 2021):

Experiment: Solar cell for testing with the fullerene derivative as n-type semiconductor and PTB7 as p-type; current and voltage under pseudo solar light irradiation
Details: for FF (fill factor) / Open Voltage / Short-circuit Current / Conversion Efficiency: P-type semiconductor material PTB7, pseudo solar light of 100 mW; for Conversion Efficiency: FF(Voc×Jsc/Pin)×100; for Voc: open voltage as listed in Table 2 beside the LUMO level

Compound	FF (fill factor)	Open Voltage [V]	Short-circuit Current [mA/cm^2]	Conversion Efficiency [%]	Voc [V]
COCCOCCOCC1N(c2ccccc2)C(c2ccccc2)C23c4c5c6c7c8c9c(c%10c%11c2c2c%12c4c4c%13c5c5c7c7c8c8c%14c9c%10c9c%10c%11c2c2c%11c%12c4c4c%12c%13c5c5c7c7c8c8c%14c9c9c%10c2c2c%11c4c4c%12c5c7c5c8c9c2c45)C613 (centres unmarked) [Compound 3]	0.65	0.79	13.66	6.96	0.79
CCCCOCC1N(c2ccccc2)C(c2ccccc2)C23c4c5c6c7c8c9c(c%10c%11c2c2c%12c4c4c%13c5c5c7c7c8c8c%14c9c%10c9c%10c%11c2c2c%11c%12c4c4c%12c%13c5c5c7c7c8c8c%14c9c9c%10c2c2c%11c4c4c%12c5c7c5c8c9c2c45)C613 (centres unmarked) [Compound 4]	0.60	0.79	14.86	7.00	0.79
CCCCCCC1N(c2ccccc2)C(c2ccccc2)C23c4c5c6c7c8c9c(c%10c%11c2c2c%12c4c4c%13c5c5c7c7c8c8c%14c9c%10c9c%10c%11c2c2c%11c%12c4c4c%12c%13c5c5c7c7c8c8c%14c9c9c%10c2c2c%11c4c4c%12c5c7c5c8c9c2c45)C613 (centres unmarked) [Compound 1]	0.63	0.79	14.52	7.28	0.79
C1=CC2=c3ccc4c5ccc6c7ccc8c9ccc%10c%11c%12c%13c%14c(c3c4c3c5c6c4c7c8c(c%119)c%13c4c%143)C23C(c2ccccc2)N(c2ccccc2)CC%123C=%101 (centres unmarked) [Control Compound 1, reference compound]	0.63	0.75	15.48	7.34	0.75
CCCCCCC1N(c2ccccc2)CC23C4=c5ccc6c7ccc8c9ccc%10c%11ccc%12c%13c(c%14c%15c2c5c6c2c7c8c5c9c%10c(c%13%11)c%14c5c%152)C13C=%12C=C4 (centres unmarked) [Control Compound 2, reference compound]	0.67	0.76	14.21	7.27	0.76
COC(=O)CCCC1(c2ccccc2)C23c4c5c6c7c8c9c(c%10c%11c2c2c%12c4c4c%13c5c5c7c7c8c8c%14c9c%10c9c%10c%11c2c2c%11c%12c4c4c%12c%13c5c5c7c7c8c8c%14c9c9c%10c2c2c%11c4c4c%12c5c7c5c8c9c2c45)C613 (centres unmarked) [[60]PCBM, [6,6]-phenyl-C61-butyric acid methyl ester, reference compound]	–	–	–	–	0.736
CCCCC(CC)CC1N(c2ccccc2)C(C)(C)C23c4c5c6c7c8c9c(c%10c%11c2c2c%12c4c4c%13c5c5c7c7c8c8c%14c9c%10c9c%10c%11c2c2c%11c%12c4c4c%12c%13c5c5c7c7c8c8c%14c9c9c%10c2c2c%11c4c4c%12c5c7c5c8c9c2c45)C613 (centres unmarked) [Compound 7]	0.59	0.82	14.20	6.84	–
CCCCC(CC)CC1N(c2ccccc2)C(c2ccccc2)C23c4c5c6c7c8c9c(c%10c%11c2c2c%12c4c4c%13c5c5c7c7c8c8c%14c9c%10c9c%10c%11c2c2c%11c%12c4c4c%12c%13c5c5c7c7c8c8c%14c9c9c%10c2c2c%11c4c4c%12c5c7c5c8c9c2c45)C613 (centres unmarked) [Compound 2]	0.61	0.82	14.96	7.48	0.82
